Source: US20250263472A1
These are yes or no findings as the source states them, for the method shown. Some results given as binding are weak or reduced against the parent protein; the word gives no strength. For part of these data: Sequences can lack the tags named with a protein.

T1: Natural Ara h 2 (InBio) (peanut) (UniProt Q6PSU2)
T1 sequence (looked up): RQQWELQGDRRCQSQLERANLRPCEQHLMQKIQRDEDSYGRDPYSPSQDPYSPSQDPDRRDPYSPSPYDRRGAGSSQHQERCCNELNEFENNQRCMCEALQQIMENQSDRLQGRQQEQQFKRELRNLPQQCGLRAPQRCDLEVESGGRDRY

T2: His-tagged recombinant Ara h 2 (peanut) (UniProt Q6PSU2)
T2 sequence (looked up): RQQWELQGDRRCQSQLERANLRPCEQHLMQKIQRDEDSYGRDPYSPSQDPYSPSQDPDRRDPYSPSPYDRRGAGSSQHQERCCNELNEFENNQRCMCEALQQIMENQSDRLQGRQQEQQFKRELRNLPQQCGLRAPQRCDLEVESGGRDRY


Tests used:
[1] = target: T1, Natural Ara h 2 (InBio) (peanut); assay: SPR, Carterra LSA (Example 2)
[2] = target: T2, His-tagged recombinant Ara h 2 (peanut); assay: blocking ELISA, competitor captured peanut allergic plasma IgE, 9 plasmas
[3] = target: T1, Natural Ara h 2 (InBio) (peanut); assay: told in the description of Combination-1; assay not named
[4] = target: T2, His-tagged recombinant Ara h 2 (peanut); assay: binding ELISA on recombinant Ara h 2 (FIG. 3C)

| binding [1] | binding [2] | binding [3] | binding [4] | Binder |
| --- | --- | --- | --- | --- |
| binds | binds |  |  | Molecule-2f (antibody, human IgG4 S228P, kappa, V domains shown) VH: QEQLVQSGGGVVQPGRSLTVSCAGSGFTFSYHALHWVRQAPGKGLEWLAVISDNGNRRDYVDSVRGRFSVSRDNSRNTVFLQMDSLRADDSAVYFCARTMDFDSGSHYYGLDVWGQGTTVIVSS VL: EVVLTQSPALLSLSPGERASLSCRASQTINSNYLAWYQLKPGQAPRLVIYLTSTRAPGIPARFSGSGSGTDFTLTIDRLEPEDFALYYCQHYSRSPPYSFGQGTRLDVKR |
|  |  | binds |  | Molecule-2c (antibody, human IgG4 S228P, kappa, V domains shown) VH: EVQLVQSGGGVVQPGRSLTVSCAGSGFTFSYHALHWVRQAPGKGLEWLAVISDAGDRRDYVDSVRGRFSVSRDNSRNTVFLQMDSLRADDSAVYFCARTMDFDSGSHYYGLDVWGQGTTVIVSS VL: EVVLTQSPALLSLSPGERASLSCRASQTINSNYLAWYQLKPGQAPRLVIYLTSTRAPGIPARFSGSGSGTDFTLTIDRLEPEDFALYYCQHYSRSPPYSFGQGTRLDVKR |
| binds | binds |  | binds | Molecule-2e (antibody, human IgG4 S228P, kappa, V domains shown) VH: EVQLVESGGGVVQPGRSLTLTCVGSGFNFDDYTMHWVRQRPGKGLEWVSSIRYNSVRIEYVESVKGRFTTSRDNAKNSLYMEMKSLRPEDTAFYYCVKDNGFRSFEIWGQGTMVIVSS VL: EIVMTQSPLSLPVTPGEPASISCRSTQSLEHSNGYHYLDWYVQKAGQSPQLLISLGSKRASGVPDRFSGSVSGTDFTLKISRVEAEDVGVYYCMQALQTWTFGQGTKVEIKR |
| binds | binds |  | binds | Molecule-2d (antibody, human IgG4 S228P, lambda, V domains shown) VH: EVALVESGGGLVQPGGSLRLSCTASGFKFSDHWMTWVRQAPGKGLEWVASISEDGREKVYVDSVRGRFTLSRDNAKKSLSLQMTSLRVDDTAKYHCARVSTRVVNDGFDIWGQGAMVIVSL VL: SYVLTQPPSVSAAPGETARITCGGKNIADKNVHWYQHRPGQAPVMVIYDDDDRPSEIPDRFSGSNSGNTATLTISRVEAGDEADYYCQVWDSRSEYVFGTGTTVTVLG |
